The source of these data is patent US20230348447A1, “OXAZOLIDINONE COMPOUNDS, LIPOSOME COMPOSITIONS COMPRISING OXAZOLIDINONE COMPOUNDS AND METHOD OF USE THEREOF” (priority 2020, published 2023).

One data set deals with mitochondrial protein synthesis (COX-1/SDH-A ratio) in H9C2 rat heart myoblast cells. Put plainly: Mitochondrial protein synthesis inhibition (MitoBiogenesis in-cell ELISA, COX-1/SDH-A). It is filed as cell-based.
Conditions: not given
Take `Cl.Cn1nnc(-c2ccc(-c3ccc(N4C[C@H](CN)OC4=O)cc3F)cn2)n1` [AKG-3]: the “SI-MPS MPS/H37” value turned out to be 1.91.
On the same count and under the same terms, the value for `CN(C)CCn1nnc(-c2ccc(-c3ccc(N4C[C@H](CN)OC4=O)cc3F)cn2)n1.Cl` [AKG-28] was 27.41.
The same measure, in the same setting: to `Cn1nnc(-c2ccc(-c3ccc(N4C[C@H](CO)OC4=O)cc3F)cn2)n1` [Tedizolid, reference compound] belongs 0.57.

The data set is the same for the next values; noted with them: MPS IC50 divided by MIC in H37Rv.
For `Cl.NCCn1nnnc1-c1ccc(-c2ccc(N3C[C@H](CO)OC3=O)cc2F)cn1` [AKG-22], the “SI-MPS MPS/H37” value is 2.37.
For the molecule `Cl.Cl.NCCn1nnc(-c2ccc(-c3ccc(N4C[C@H](CN)OC4=O)cc3F)cn2)n1` [AKG-29], the “SI-MPS MPS/H37” value came out at 32.80.
On the same count and under the same terms, the value for `CCN(CC)CCn1nnc(-c2ccc(-c3ccc(N4C[C@H](CNC(C)=O)OC4=O)cc3F)cn2)n1` [AKG-39] was 0.12; that for `CCN(CC)CCCn1nnc(-c2ccc(-c3ccc(N4C[C@H](CNC(C)=O)OC4=O)cc3F)cn2)n1` [AKG-40] was 0.13.
